For one substance, binding results are on record in patent US20220334130A1.

By UniProt entry, the sequences of proteins in these tests, tags left out.
UniProt Q01727: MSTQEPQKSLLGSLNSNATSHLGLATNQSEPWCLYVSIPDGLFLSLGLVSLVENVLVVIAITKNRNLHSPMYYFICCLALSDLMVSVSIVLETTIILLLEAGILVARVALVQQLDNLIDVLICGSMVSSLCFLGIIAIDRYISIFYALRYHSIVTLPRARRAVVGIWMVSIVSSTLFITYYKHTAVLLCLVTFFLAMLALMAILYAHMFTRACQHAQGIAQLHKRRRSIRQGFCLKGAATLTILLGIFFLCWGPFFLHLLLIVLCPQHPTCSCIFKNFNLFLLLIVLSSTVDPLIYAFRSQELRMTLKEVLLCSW

No constants are given. Whether binding was seen depends on the method and setting. Binding seen in cells or lysates may run through a third protein. Some binding calls cover weakened binding; strength is not graded here.

The experiment deals with T1, protein FAM86A (family with sequence similarity 86, member A) (mouse (murine melanoma B16F10 cells; Table 1 lists the gene FAM86 under Mus musculus)) (UniProt Q3UZW7).
T1 sequence: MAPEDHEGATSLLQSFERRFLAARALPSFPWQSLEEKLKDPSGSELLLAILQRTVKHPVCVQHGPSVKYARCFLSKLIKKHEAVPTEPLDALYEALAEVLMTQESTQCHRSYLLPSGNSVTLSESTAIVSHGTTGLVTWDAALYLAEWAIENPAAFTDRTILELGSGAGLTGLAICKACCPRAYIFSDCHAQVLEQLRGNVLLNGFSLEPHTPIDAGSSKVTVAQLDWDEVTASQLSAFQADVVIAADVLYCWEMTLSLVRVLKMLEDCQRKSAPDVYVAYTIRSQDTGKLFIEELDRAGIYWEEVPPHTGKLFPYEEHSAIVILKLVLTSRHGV
Put plainly: co-immunoprecipitation with anti-MC1R antibody and protein A/G-agarose beads from B16F10 cell lysate, SDS-PAGE.

Regarding “MC1R protein (melanocortin 1 receptor) (from UniProt Q01727 1-315)”, the binding result is “binds”.
